Results are given in words; binding and its absence hold for the method and conditions named. Binding seen in cells or lysates may run through a third protein. A yes stands for co-enrichment or nearness to the bait. Other partners may have been found. Tags and fused reporters may be left off the sequences shown.
T1: HA-Cdc55 (S. cerevisiae) (UniProt Q00362)
T1 sequence: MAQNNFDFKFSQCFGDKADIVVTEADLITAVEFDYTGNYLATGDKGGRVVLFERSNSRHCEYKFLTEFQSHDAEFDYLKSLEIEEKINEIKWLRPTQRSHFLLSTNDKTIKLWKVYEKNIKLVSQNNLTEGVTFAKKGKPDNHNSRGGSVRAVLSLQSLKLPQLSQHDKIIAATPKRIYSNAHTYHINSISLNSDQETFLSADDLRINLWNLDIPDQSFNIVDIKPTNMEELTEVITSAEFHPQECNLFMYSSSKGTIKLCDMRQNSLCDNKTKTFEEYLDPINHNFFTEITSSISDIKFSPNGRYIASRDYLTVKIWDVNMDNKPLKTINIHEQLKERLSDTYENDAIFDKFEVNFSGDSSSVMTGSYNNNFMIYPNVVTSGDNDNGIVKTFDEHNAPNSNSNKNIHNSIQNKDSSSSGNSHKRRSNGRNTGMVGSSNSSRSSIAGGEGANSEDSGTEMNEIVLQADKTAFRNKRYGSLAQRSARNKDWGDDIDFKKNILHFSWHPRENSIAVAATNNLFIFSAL

T2: TAP-epitope tagged Cdc55 (S. cerevisiae) (UniProt Q00362)
T2 sequence: T1 sequence

B1: Tgl1 (protein, UniProt P34163 1-548)
chain: MYFPFLGRLSITDYIIVVLVYIESIISSVLKLIPQPMINLFEWLINFSTSSDDNTIEEKLRSAPTIHEMCAIFDISVEDHLVRTEDNYILTLHRIPPISKNRFNNKVVYLHHGLLMCSDVWCCNIERHKNLPFVLHDLGYDVWMGNNRGNKYSTAHLNKPPKSNKFWDFSIDEFAFFDIPNSIEFILDITKVDKVICIGFSQGSAQMFAAFSLSEKLNRKVSHFIAIAPAMTPKGLHNRIVDTLAKSSPGFMYLFFGRKIVLPSAVIWQRTLHPTLFNLCIDIANKILFNWKSFNILPRQKIASYAKLYSTTSVKSIVHWFQILRSQKFQMFEESDNMLNSLTRPYQIANFPTRTNIKIPILLIYGGIDSLVDIDVMKKNLPFNSVFDVKVDNYEHLDLIWGKDADTLVIAKVLRFIEFFNPGNVSVKTNQLLPSASLVEELPSTTWKTTHPTHGLSYRTHSADRSPLSVQADEADEVHNADNSRFLRRVFSTSAIDEDNENEHQDDTEDQIHKEQQRRLSAYLESSKDLRQLDANSSTTALDALNKE
B2: Hos3 (protein, UniProt Q02959 1-697)
chain: MSSKHSDPLERFYKQFQAFVQNNPNVISAARAAAQIPESAKAVVVLSPYSLQHVFPREWVTKSYRKTIVERPERLLASSMGISAAITMYPSLFTLKSSHQRKGSLMAPHVLKVHGSSWPAELIELCQMADAKLLKGEIEVPDTWNSGDIYLSSKTIKALQGTIGAIETGVDSIFKGPSAEHISNRAFVAIRPPGHHCHYGTPSGFCLLNNAHVAIEYAYDTYNVTHVVVLDFDLHHGDGTQDICWKRAGFKPEEEPEDSSYDDFGKKFAEFPKVGYFSMHDINSFPTESGFATKENIKNASTCIMNSHDLNIWNIHLSKWTTEEEFNVLYRTKYRTLFAKADEFFRSAKLEMNQQGRPFKGLVVISAGFDASEFEQTSMQRHSVNVPTSFYTTFTKDALKLAQMHCHGKVLSLMEGGYSDKAICSGVFAHLIGLQNQDWVKEWGSEQVVKEIVRGCKPAWKPYKTKRAKDVIRIWAEEVIRLGRAMIPEFDDIIFKDAVNSAPSNSLLKATVEPASTSTIAQRIIRSHRSNASPEKELHENKPRSTEKQEQREIRSDTKVKQLSSNNRAAETQIPFLQQEFSSEDEDEEYVYDEELNKTFNRTVEDITIDDISRHLETLEIEKKGDEDSDHELKEKNWKNSHQRRLQGNGMYKIPSNTKPHRIRQPQNANTPTYDDSDISMISHVSRKHTTRSGGRW
B3: Sro9 (protein, UniProt P25567 1-434)
chain: MSAETAAANTATAPVPEVQEQESSKSKQVNLTPAPLPTSSPWKLAPTEIPVSTISIEDLDATRKKKNRTPTPKSSTATKWVPIKASITVSGTKRSGSKNGASNGNSNKSKNNKTAASSTSSSNANRKKKHHQHNAKKQQQMKKDGFESAVGEEDSKDATSQENGQSTQQQQPPHHRNHHHSHHHNSNGPQRRKFHNSNNAGMPQNQGFPPQFKPYQGRNARNNNNNRSKYHNHFHHNQQHPQQPMVKLQQQFYPVQPVLMAINNIARQIEYYFSEENLTVDNYLRSKLSKDGFAPLSLISKFYRVVNMSFGGDTNLILAALREIVANEAATVNVAEGTLAAKEGDNVTGEAKEPSPLDKYFVRSKSWSNWLPETFETEINIEKELVGDALDQFMISLPPVPQQEEESSTELASQEQETKEDSAPVAAGESESSL
B4: Psh1 (protein, UniProt Q12161 1-406)
chain: MGDELHNRLLHQNDGTKDAILYKIIESLVCSICHDYMFVPMMTPCGHNYCYGCLNTWFASNTQKELACPQCRSDITTIPALNTTLQQYLSFILEKLRDQNDESFKKLLTTKTKEENDYKNDKEKDTLFDKVFKNSALAVADDSDDGITRCSNCHWELDPDEVEDGNVCPHCNARIRNYAGGRDEFDEEEYSEGELDEIRESMRRRRENRFASTNPFANRDDVSSEDDDSSEEEPMREHIPLGRWARSHNRSIAVDAVDDEDDEEEDEEEEEEMDSDLKDFIEDDEDDEDEDGSRRNLVLSALKNRHVIITDDEEEEQRRHATEEEDRDSDFYEHNDDGFVSGDSLDEDQKEVTRIQSSSDSEDRSLSYSGSSDVKDNNDDNTEELDDPQPKRQKRFRVVLGDSDDE
B5: Set1 (protein, UniProt P38827 1-1080)
chain: MSNYYRRAHASSGSYRQPQEQPQYSRSGHYQYSNGHSHQQYSSQYNQRRRYNHNDGTRRRYNDDRPHSSNNASTRQYYATNNSQSGPYVNKKSDISSRRGMSQSRYSNSNVHNTLASSSGSLPTESALLLQQRPPSVLRYNTDNLKSKFHYFDPIKGEFFNKDKMLSWKATDKEFSETGYYVVKELQDGQFKFKIKHRHPEIKASDPRNENGIMTSGKVATHRKCRNSLILLPRISYDRYSLGPPPSCEIVVYPAQDSTTTNIQDISIKNYFKKYGEISHFEAFNDPNSALPLHVYLIKYASSDGKINDAAKAAFSAVRKHESSGCFIMGFKFEVILNKHSILNNIISKFVEINVKKLQKLQENLKKAKEKEAENEKAKELQGKDITLPKEPKVDTLSHSSGSEKRIPYDLLGVVNNRPVLHVSKIFVAKHRFCVEDFKYKLRGYRCAKFIDHPTGIYIIFNDIAHAQTCSNAESGNLTIMSRSRRIPILIKFHLILPRFQNRTRFNKSSSSSNSTNVPIKYESKEEFIEATAKQILKDLEKTLHVDIKKRLIGPTVFDALDHANFPELLAKRELKEKEKRQQIASKIAEDELKRKEEAKRDFDLFGLYGGYAKSNKRNLKRHNSLALDHTSLKRKKLSNGIKPMAHLLNEETDSKETTPLNDEGITRVSKEHDEEDENMTSSSSEEEEEEAPDKKFKSESEPTTPESDHLHGIKPLVPDQNGSSDVLDASSMYKPTATEIPEPVYPPEEYDLKYSQTLSSMDLQNAIKDEEDMLILKQLLSTYTPTVTPETSAALEYKIWQSRRKVLEEEKASDWQIELNGTLFDSELQPGSSFKAEGFRKIADKLKINYLPHRRRVHQPLNTVNIHNERNEYTPELCQREESSNKEPSDSVPQEVSSSRDNRASNRRFQQDIEAQKAAIGTESELLSLNQLNKRKKPVMFARSAIHNWGLYALDSIAAKEMIIEYVGERIRQPVAEMREKRYLKNGIGSSYLFRVDENTVIDATKKGGIARFINHCCDPNCTAKIIKVGGRRRIVIYALRDIAASEELTYDYKFEREKDDEERLPCLCGAPNCKGFLN
B6: Zeo1 (protein, UniProt Q08245 1-113)
chain: MSEIQNKAETAAQDVQQKLEETKESLQNKGQEVKEQAEASIDNLKNEATPEAEQVKKEEQNIADGVEQKKTEAANKVEETKKQASAAVSEKKETKKEGGFLKKLNRKIASIFN
B7: Dnm1 (protein, UniProt P54861 1-757)
chain: MASLEDLIPTVNKLQDVMYDSGIDTLDLPILAVVGSQSSGKSSILETLVGRDFLPRGTGIVTRRPLVLQLNNISPNSPLIEEDDNSVNPHDEVTKISGFEAGTKPLEYRGKERNHADEWGEFLHIPGKRFYDFDDIKREIENETARIAGKDKGISKIPINLKVFSPHVLNLTLVDLPGITKVPIGEQPPDIEKQIKNLILDYIATPNCLILAVSPANVDLVNSESLKLAREVDPQGKRTIGVITKLDLMDSGTNALDILSGKMYPLKLGFVGVVNRSQQDIQLNKTVEESLDKEEDYFRKHPVYRTISTKCGTRYLAKLLNQTLLSHIRDKLPDIKTKLNTLISQTEQELARYGGVGATTNESRASLVLQLMNKFSTNFISSIDGTSSDINTKELCGGARIYYIYNNVFGNSLKSIDPTSNLSVLDVRTAIRNSTGPRPTLFVPELAFDLLVKPQIKLLLEPSQRCVELVYEELMKICHKCGSAELARYPKLKSMLIEVISELLRERLQPTRSYVESLIDIHRAYINTNHPNFLSATEAMDDIMKTRRKRNQELLKSKLSQQENGQTNGINGTSSISSNIDQDSAKNSDYDDDGIDAESKQTKDKFLNYFFGKDKKGQPVFDASDKKRSIAGDGNIEDFRNLQISDFSLGDIDDLENAEPPLTEREELECELIKRLIVSYFDIIREMIEDQVPKAVMCLLVNYCKDSVQNRLVTKLYKETLFEELLVEDQTLAQDRELCVKSLGVYKKAATLISNIL
B8: Apa1 (protein, UniProt P16550 1-321)
chain: MSIPADIASLISDKYKSAFDNGNLKFIQTETTKTKDPKTSMPYLISHMPSLIEKPERGQTPEGEDPLGKPEEELTVIPEFGGADNKAYKLLLNKFPVIPEHTLLVTNEYQHQTDALTPTDLLTAYKLLCALDNEESDKRHMVFYNSGPASGSSLDHKHLQILQMPEKFVTFQDRLCNGKEHFLPTFNTEPLQDAKVSFAHFVLPMPESEETVDEDLLAMCYISILQRALTFFQDWLNENPELKKSYNLMLTKEWICVVPRSKAFSDEMKIGFNSTGYCGMILTKNDEVFSKITEKPELINDILLECGFPNTSGQKPNEYNY

The binders below were run against T1, HA-Cdc55 (S. cerevisiae) (assay: affinity purification with mass spectrometry; HA-Cdc55 and associated proteins recovered from yeast cell extract on HA-agarose beads; eluates separated on a gel, trypsin digestion, TiO2 phosphopeptide enrichment, LC-MS/MS).

binding, binds:
B1
B2
B3
B4

These binders were tested against T2, TAP-epitope tagged Cdc55 (S. cerevisiae) (assay: affinity purification with mass spectrometry; tandem affinity purification of TAP-Cdc55 from yeast cell extract: IgG-sepharose, release with AcTEV protease, calmodulin-coated beads with calcium, release with EGTA; eluates by LC-MS/MS; strain without the TAP epitope as control; two biological replicates).

binding, binds:
B5
B6
B7
B8
